The values below come from US20220162285A1.

No constants are given. Whether binding was seen depends on the method and setting. Some entries that bind do so weakly or less than the wild type.

Test [1] deals with T1, recombinant human CD20 protein (Abcam) (human) (UniProt P11836).
T1 sequence (looked up): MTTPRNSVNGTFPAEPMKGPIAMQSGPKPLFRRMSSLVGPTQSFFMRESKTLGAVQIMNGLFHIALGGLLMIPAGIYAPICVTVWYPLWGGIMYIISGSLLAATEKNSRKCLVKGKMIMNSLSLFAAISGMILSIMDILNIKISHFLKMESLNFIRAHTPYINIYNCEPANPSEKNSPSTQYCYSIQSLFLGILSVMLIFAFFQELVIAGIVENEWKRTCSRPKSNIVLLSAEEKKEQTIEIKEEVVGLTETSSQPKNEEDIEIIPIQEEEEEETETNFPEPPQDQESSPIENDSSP
Kind of test: direct binding ELISA on coated recombinant CD20 (FIG. 26D). On the technique in general: ELISA stands for enzyme-linked immunosorbent assay.

The target in test [2] is T1, recombinant human CD20 protein (Abcam) (human). Kind of test: direct binding ELISA on coated CD20, side-by-side comparison of valencies.

B1: Quad 53 Mon (monovalent anti-CD20 scFv control) (scFv)
scFv: DIVLTQSPAILSASPGEKVTMTCRASSSVNYMDWYQKKPGSSPKPWIYATSNLASGVPARFSGSGSGTSYSLTISRVEAEDAATYYCQQWSFNPPTFGGGTKLEIKGSTSGGGGSGGGGSGGGGSSEVQLQQSGAELVKPGASVKMSCKASGYTFTSYNMHWVKQTPGQGLEWIGAIYPGNGDTSYNQKFKGKATLTADKSSSTAYMQLSSLTSEDSADYYCARSNYYGSSYWFFDVWGAGTTVTVSS
For the molecule B1, the binding entry in test [1] and in test [2] was “binds” each time.
